For test [1], the target named is T1, TRAF2 as tested in the yeast two-hybrid system (UniProt Q12933).
T1 sequence (looked up): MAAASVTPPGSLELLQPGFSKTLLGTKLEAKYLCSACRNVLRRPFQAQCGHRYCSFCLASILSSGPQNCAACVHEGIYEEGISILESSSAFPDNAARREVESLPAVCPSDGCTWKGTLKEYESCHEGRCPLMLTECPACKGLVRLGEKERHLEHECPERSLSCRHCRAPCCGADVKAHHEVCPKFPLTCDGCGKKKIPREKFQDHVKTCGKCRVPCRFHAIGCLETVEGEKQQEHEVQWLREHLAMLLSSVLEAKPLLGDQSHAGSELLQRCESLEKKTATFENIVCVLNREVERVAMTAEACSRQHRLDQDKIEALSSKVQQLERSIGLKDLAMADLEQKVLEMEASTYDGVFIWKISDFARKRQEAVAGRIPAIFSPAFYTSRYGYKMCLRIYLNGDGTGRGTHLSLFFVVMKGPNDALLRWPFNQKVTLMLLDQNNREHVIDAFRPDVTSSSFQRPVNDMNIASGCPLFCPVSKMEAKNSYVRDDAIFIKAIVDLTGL
Briefly: yeast two-hybrid.

For test [2], the target named is T1, TRAF2 as tested in the yeast two-hybrid system. Briefly: summary: yeast two-hybrid.
Test [3] has as its target T2, Flag-tagged TRAF2 (UniProt Q12933).
T2 sequence (looked up): T1 sequence (looked up)
Briefly: co-immunoprecipitation from Flag-TRAF2 transfected cells, detection by anti-Apop3 Ab.

The target in test [4] is T2, Flag-tagged TRAF2. Briefly: summary: co-immunoprecipitation in mammalian cells.

No constants are given. Whether binding was seen depends on the method and setting. Binding calls can cover weak binding; strength is not graded here. For some of these results: Binding seen in cells or lysates may run through a third protein. For some of these results: Tags and fused reporters may be left off the sequences shown.

On to “Apop3 as tested in the yeast two-hybrid system (enzyme)”, for which the binding result in test [1] and in test [2] was “binds” in each case.
In the case of endogenous Apop3 (enzyme), the binding entry with Flag-tagged TRAF2 [3] and in the test with Flag-tagged TRAF2 [4] was “binds” in each case.
